Data as given in PubChem BioAssay AID743448 (Peter MacCallum Cancer Centre, 2014).
This is a random part of the 106 reagents, under one of the conditions tested. 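Calls are per line and drug panel including etoposide, not vorinostat-specific; gene picks needed hits in two or more extra lines with vorinostat versus etoposide.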 Unmarked entries are inactive. Not all columns of the deposit are shown.

Assay: 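Third-round triage of 106 confirmed candidates in four colon lines under two drugs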 (follow-up of hits)
Cells: four human colon cancer cell lines: HCT116-VR (vorinostat-resistant HCT116 derivative), SW480, SW620 and LIM1215
Knock-down reagent: siRNA pool against human genes, 40 nM siRNA pool
Timing: drug added two days after transfection, read one day later
Treatment: vorinostat 2.5 µM on one half of each plate, etoposide 5 µM on the other half
Cell line and drug panel: vorinostat-resistant HCT116 cells with vorinostat
Measurement: 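Caspase luminescence and viability fluorescence, each expressed relative to mock transfection and also as robust z-scores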
Direction: caspase ratio to mock: higher = more caspase activity than mock; viability ratio to mock: higher = more live cells than mock
Hit rule: 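a row is a hit if caspase relative to mock is 1.6 or above or viability relative to mock is 0.75 or below; wells dying heavily without drug are not called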
Meaning of the calls: active = caspase or viability hit in this panel; inactive = no change, or unhealthy well

The opening 6 records, ahead of the listing:
| target gene | caspase ratio to mock | viability ratio to mock |
| --- | --- | --- |
| MAGOH | 2.77 (active) | 0.66 |
| EIF2B5 | 1.13 (active) | 0.74 |
| THOC5 | 3.22 (active) | 0.88 |
| RGS18 | 2.67 (active) | 1.24 |
| CAPN12 | 2.19 (active) | 0.94 |
| FANCA | 2.55 (active) | 0.97 |

Main list, from the first entry:
| target gene | caspase ratio to mock | viability ratio to mock |
| --- | --- | --- |
| MAGOH | 2.77 (active) | 0.66 |
| EIF2B5 | 1.13 (active) | 0.74 |
| THOC5 | 3.22 (active) | 0.88 |
| RGS18 | 2.67 (active) | 1.24 |
| CAPN12 | 2.19 (active) | 0.94 |
| FANCA | 2.55 (active) | 0.97 |
| EIF2B2 | 1.52 | 0.84 |
| SEMA4F | 1.97 (active) | 0.9 |
| EIF3L | 1.85 (active) | 1.16 |
| EIF3I | 0.88 (active) | 0.64 |
| ANO9 | 1.63 (active) | 0.98 |
| CNOT3 | 3.51 (active) | 1.04 |
| PLAG1 | 1.62 (active) | 0.99 |
| BEGAIN | 1.83 (active) | 1.08 |
| TBC1D20 | 2.34 (active) | 0.93 |
| DDX18 | 1.48 (active) | 0.73 |
| RWDD2A | 1.66 (active) | 1.02 |
| NPEPPS | 0.77 (active) | 0.48 |
| PSMD13 | 2.55 (active) | 0.74 |
| GLI1 | 1.86 (active) | 0.98 |
| RNF186 | 1.23 | 1.08 |
| UTP3 | 1.52 | 0.82 |
| IRX2-DT | 2.11 (active) | 1.21 |
| POLR2L | 3.16 (active) | 0.74 |
| SAP130 | 2.79 (active) | 0.9 |
| C1orf52 | 2.42 (active) | 0.9 |
| LRP3 | 2.25 (active) | 0.98 |
| VAX1 | 2.04 (active) | 0.99 |
| TFAP2D | 2.26 (active) | 1.12 |
| NUP93 | 2.37 (active) | 0.77 |
| PCP4 | 2.96 (active) | 0.78 |
| RBBP8 | 2.91 (active) | 0.92 |
| EIF2S1 | 1.31 (active) | 0.72 |
| SIN3A | 1.92 (active) | 1.05 |
| OR2W5 | 1.88 (active) | 0.92 |
| MED28 | 2.69 (active) | 0.93 |
| MED26 | 3.96 (active) | 0.94 |
| ANKRD13C-DT | 1.75 (active) | 0.92 |
| NUP205 | 2.26 (active) | 0.54 |
| NPC1L1 | 1.2 | 0.97 |
| HSPA6 | 2.68 (active) | 1.08 |
| POLR2D | 4.05 (active) | 0.8 |
| AKAP8 | 2.58 (active) | 1.05 |
| C22orf15 | 2.06 (active) | 1 |
| FLII | 2.86 (active) | 1.08 |
| ZNF441 | 2.01 (active) | 0.92 |
| PSMD4 | 3.5 (active) | 0.94 |
| DDX19B | 3.62 (active) | 0.71 |
| MICALL2 | 2.94 (active) | 1.15 |
| DNTTIP2 | 0.88 | 0.83 |
